Our source for the binding signal values is PMC7819943, “Rice protein-binding microarrays: a tool to detect cis-acting elements near promoter regions in rice”.

Sequences of proteins named here, by UniProt entry; tags and fusion partners are left off.
UniProt Q0JBA9, entry or part of it: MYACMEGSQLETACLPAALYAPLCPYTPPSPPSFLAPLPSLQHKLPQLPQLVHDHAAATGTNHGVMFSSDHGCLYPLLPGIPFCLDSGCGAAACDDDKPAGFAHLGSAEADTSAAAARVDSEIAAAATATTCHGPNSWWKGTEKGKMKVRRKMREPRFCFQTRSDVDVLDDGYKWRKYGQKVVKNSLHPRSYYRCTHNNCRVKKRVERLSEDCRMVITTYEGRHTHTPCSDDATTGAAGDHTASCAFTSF

Some of the results follow.

This test has as its target OsWRKY34 (Oryza sativa, UniProt Q0JBA9 1-250). In words: protein-binding microarray (RPBM); PBS, 2% BSA, 51.3 ng/ul salmon testes DNA, 50 uM zinc acetate, 200 nM TF, 25 C, 1 h; high values mean tight binding. Conditions: protein: recombinant; tags: N-terminal polyhistidine and DsRed monomer fusion (pET32a); label: CyDye5-dUTP incorporated in the synthesized complementary strand; 3' TTTTT single-stranded linker to array surface; dsDNA, one strand shown. An outline of the steps:
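Using Ni–NTA, transcription factors fused N-terminally to polyhistidine and DsRed were purified after expression in E. coli BL21-CodonPlus. These were incubated at 200 nM with a blocked, double-stranded custom Agilent array for 1 h at 25 °C in a buffer containing 50 µM zinc acetate, and the array was washed. The binding signal is per-feature fluorescence intensity (arbitrary units) on an Axon 4000B scanner.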
With “TAAGGTTTCTTCTGGGATCATTACATATACCTATATGGTTCGGAGTCACCTAGTGCAG”, the binding signal is 8100 fluorescence intensity (a.u.).
With “GCAATTTCTCACCGGACCATCGCTTGGCCTCGAAGCATCTCGGAGTCACCTAGTGCAG”, the binding signal was 9440 fluorescence intensity (a.u.).
With “TCACCTTTTGTTTAATAATCACATGTCTTTGTACTATTTTCGGAGTCACCTAGTGCAG”, the binding signal is 11100 fluorescence intensity (a.u.).
Turning to “GTAGTGGCTCTGTGCTCGCTAGCTTCGTCATCTACCACTGCGGAGTCACCTAGTGCAG”, the binding signal is 10900 fluorescence intensity (a.u.).
Consider “GCAGCGCTGTCGTTCGTTGCACCACCACCACCACCTCCACCGGAGTCACCTAGTGCAG”, for which the binding signal was 8380 fluorescence intensity (a.u.).
Consider “ATAAGCTATCATGTCTTCGGGCTGACACGACCCAAATCTTCGGAGTCACCTAGTGCAG”, for which the binding signal is 8240 fluorescence intensity (a.u.).
“TCGTCATCAAGACCTTCCTATTGATGCCATCACCGCGTCCCGGAGTCACCTAGTGCAG”: the binding signal is 8720 fluorescence intensity (a.u.).
For the sequence “GTCCGGCGGCTGCCCAACAGAATCCACCATGGTTTCTCCACGGAGTCACCTAGTGCAG”, the binding signal was 8150 fluorescence intensity (a.u.).
Turning to “TACCCGCCCCTATCACCCCGCGCCTCGGCCTCGCTCGCTTCGGAGTCACCTAGTGCAG”, the binding signal is 8300 fluorescence intensity (a.u.).
As to “CCAAAAGCTCCAAGCTCCAGTTTTTACACCATTTCGTTTTCGGAGTCACCTAGTGCAG”, the binding signal is 8920 fluorescence intensity (a.u.).
On to “ATTTCCACCTCACCCAACCCTGCCACGTCAATCTATCATACGGAGTCACCTAGTGCAG”, for which the binding signal is 10100 fluorescence intensity (a.u.).
Take “AACATGCGTACTCTGATTCTTCCTACTACGAGAACATTGACGGAGTCACCTAGTGCAG”: the binding signal is 10400 fluorescence intensity (a.u.).
As for “GTTTTACACTTATATTCCTATTAAAATTTTCCGTTTTTCTCGGAGTCACCTAGTGCAG”, the binding signal is 8490 fluorescence intensity (a.u.).
Turning to “GTTGTATTACTCTCTCATTAATTCACCATCGTTGTTTCTTCGGAGTCACCTAGTGCAG”, the binding signal was 9960 fluorescence intensity (a.u.).
Regarding “GCTTGGTTTGCTTCCGGTTTCCGATTAGGTTATTACTGTTCGGAGTCACCTAGTGCAG”, the binding signal was 9450 fluorescence intensity (a.u.).
Take “GGCCCAACTGCTCCTTCTACTGACTCTCACGCACTAATTACGGAGTCACCTAGTGCAG”: the binding signal is 13500 fluorescence intensity (a.u.).
Consider “GGTCTCATGTCCAGCTGTTTGAATTTTGTACCTGAAATATCGGAGTCACCTAGTGCAG”, for which the binding signal was 10700 fluorescence intensity (a.u.).
With “ATGAGTCGTTGTGCCATTGGTCGGAGCTTGTCCTTTATTTCGGAGTCACCTAGTGCAG”, the binding signal is 14700 fluorescence intensity (a.u.).
For “GTGCTTCATCCTAGCCTACGTTGCTGTTCCCGCTCGCCACCGGAGTCACCTAGTGCAG”, the binding signal is 8310 fluorescence intensity (a.u.).
The value for “CGTCTCTCGTTCTCTCCTCTCGTTTTCTCCGCTCTCTACTCGGAGTCACCTAGTGCAG” was 10200 fluorescence intensity (a.u.); that for “GCTTGTTTCTTTGCTGAATTATTATTTTGCTCATTCCACTCGGAGTCACCTAGTGCAG” was 10300 fluorescence intensity (a.u.).
On to “TTTAAAAAAGTCAACGACGGCAAATATTTAGGGAAGGAGGCGGAGTCACCTAGTGCAG”, for which the binding signal was 9890 fluorescence intensity (a.u.).
Consider “AACTTTTTGATATACGCTCGATCATTCATCTTATTGAATACGGAGTCACCTAGTGCAG”, for which the binding signal was 8030 fluorescence intensity (a.u.).
Consider “CCCTGCTTCGTCACCACCGATGCCGTTTCTTTGGTCTCATCGGAGTCACCTAGTGCAG”, for which the binding signal was 8110 fluorescence intensity (a.u.).
As for “ATATACACAACAATATTATCCCATCCATTTACAAGTATACCGGAGTCACCTAGTGCAG”, the binding signal was 8630 fluorescence intensity (a.u.).
As to “GCTGCGGACGACGGATCTCTGTTTTTTTTTGTCCGCTGTACGGAGTCACCTAGTGCAG”, the binding signal was 9370 fluorescence intensity (a.u.).
For the sequence “AGTCGCCCATGCCATTCTTGAAATCTTCATATAGTCAATTCGGAGTCACCTAGTGCAG”, the binding signal was 9420 fluorescence intensity (a.u.).
On to “ACGACGAGGAGGCGGTGGTGGTCGTGCGCGGGGAGGAGTCCGGAGTCACCTAGTGCAG”, for which the binding signal is 9310 fluorescence intensity (a.u.).
“CACCTCGGCGTCGGTTTCTTCACTCTCCACCCATCCCCAGCGGAGTCACCTAGTGCAG”: the binding signal was 9390 fluorescence intensity (a.u.).
Next, “CAGCAGATTGCCCATCTCTCGTTGTACTGCCAATCTCTCCCGGAGTCACCTAGTGCAG”: 9530 fluorescence intensity (a.u.); “ACTCACCTCTCTCATCTTTCGTGCACACATTTTTCAATTTCGGAGTCACCTAGTGCAG”: 17700 fluorescence intensity (a.u.).
For “AATACTAAACTAATCTCGTTCTAATTGTTTGCTTAGTTTTCGGAGTCACCTAGTGCAG”, the binding signal was 8350 fluorescence intensity (a.u.).
For “TATTTTGTTGTGTTGCTAGTTTTCCTTCTTGTAGTGTAATCGGAGTCACCTAGTGCAG”, the binding signal was 11100 fluorescence intensity (a.u.).
With “AATGGTCAAATATGTAAGAAAAAGTCAACGGCGTCATCTACGGAGTCACCTAGTGCAG”, the binding signal is 12700 fluorescence intensity (a.u.).
Turning to “CTGCTGTGTTGCACATTTTTCTGCTCTGTATACCTATAATCGGAGTCACCTAGTGCAG”, the binding signal is 12200 fluorescence intensity (a.u.).
As to “CGCATTGATCTCAACTAGCTCGCCGGCGTCCCTTCGTCCTCGGAGTCACCTAGTGCAG”, the binding signal was 8420 fluorescence intensity (a.u.).
The value for “TGTATCTCAAATTCTTTCAGTTGGTTTTGTGCTCTTTTTACGGAGTCACCTAGTGCAG” was 8920 fluorescence intensity (a.u.); that for “TCCAGGGTTGTAATCTTGTAATTTTTTTCCTACTCTATCACGGAGTCACCTAGTGCAG” was 8770 fluorescence intensity (a.u.).
Turning to “CGGTAACGTTTGTTATATCCTGTTGTTTCTATCCATCTCACGGAGTCACCTAGTGCAG”, the binding signal was 9920 fluorescence intensity (a.u.).
For “CGTTTTAAGCTTTCCATCGAGAAAAAAAAATGCGTTGACCCGGAGTCACCTAGTGCAG”, the binding signal is 11000 fluorescence intensity (a.u.).
In the case of “TTTCTGACATGTCACTTGTTTATGTATTAGTTGCATTGTACGGAGTCACCTAGTGCAG”, the binding signal was 9520 fluorescence intensity (a.u.).
Consider “GGTAGATCTCCACGTTCCTTTTTTTTCCGTAATCCAAGATCGGAGTCACCTAGTGCAG”, for which the binding signal was 10400 fluorescence intensity (a.u.).
The value for “GCTTTGCCCATTGCCGCTCCGCCCGCAACCCGCTGCCACGCGGAGTCACCTAGTGCAG” was 9310 fluorescence intensity (a.u.); that for “AGTATGTATTAATTAAGCAAACACTCTAGCTTATTTTCTACGGAGTCACCTAGTGCAG” was 8030 fluorescence intensity (a.u.); that for “TTAGTTCACCCATCTTGCCAATGCTGTCATCGCCACAGCTCGGAGTCACCTAGTGCAG” was 8550 fluorescence intensity (a.u.).
“CTCATACCCACCGAGTCTCACCGTCCCGACCCATCTCCTTCGGAGTCACCTAGTGCAG”: the binding signal is 8500 fluorescence intensity (a.u.).
Next, “GGCGGCCAGATCCGGGGCTGGGGAGGCGACGGCGGCGGGGCGGAGTCACCTAGTGCAG”: 8710 fluorescence intensity (a.u.).
Next, “CGACTAACCCCGCTATTACTGTGTGCCACGTGGGCAATTACGGAGTCACCTAGTGCAG”: 8580 fluorescence intensity (a.u.); “TTTGTTCACTCCTAACGAGCATACACATCCTTTGGTTTGACGGAGTCACCTAGTGCAG”: 10600 fluorescence intensity (a.u.); “TTATTACTGTGTCCAACGCCTTTGCTCCCTTCTTCTTTCTCGGAGTCACCTAGTGCAG”: 9110 fluorescence intensity (a.u.).
As for “GTAGGCCATGCAAATTAGTCAACTAATCCAGCTCGAGTTCCGGAGTCACCTAGTGCAG”, the binding signal is 8200 fluorescence intensity (a.u.).
As to “CTCTTTCCTCGCCTCCACTCCAACCACCCCGCGATAGCTGCGGAGTCACCTAGTGCAG”, the binding signal is 8320 fluorescence intensity (a.u.).
As for “CATCTCTCGCTCGCTCGCTCGCTCGCCGCTACGCCTCACGCGGAGTCACCTAGTGCAG”, the binding signal is 10100 fluorescence intensity (a.u.).
Take “GTATCTAGCTTGGAGTAGTTCATTCTTTTTTTTTCCCTTTCGGAGTCACCTAGTGCAG”: the binding signal was 8170 fluorescence intensity (a.u.).
